Record: PubChem BioAssay AID1259254 (NCATS, 2017)
Test: 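Gene knock-downs that lead to re-replication, shown by excess G2 DNA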 (primary screen). System: human HCT116 colorectal cancer cells. Knock-down reagent: single siRNA against human genes. Time to read-out: 3 days. Read-out: 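Imaged Hoechst DNA stain sorts each cell into a cycle phase by DNA amount; per plate, G2 fraction set to 0% for non-targeting and 100% for GMNN siRNA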. Scale: G2 robust z-score and G2 cells, % of GMNN control: higher = more G2 cells, more excess DNA replication. Call rule: 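Active siRNAs have a G2 robust z of 5 or more median absolute deviations over the median, which in these data means about 38% or higher of GMNN control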.
In all, the deposit lists about 59,000 reagents; this is a part drawn at random. About 1,550 of all reagents (2.6%) count as active. 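G2 share is only a proxy for re-replication; each gene was hit by three separate siRNAs, and active genes were retested.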 The numbers tell different reagents against one gene apart. Not all columns of the deposit are shown. Not stated in the record: the amount of reagent.

TRIM45 #1 showed G2 robust z-score -0.311; G2 cells, % of GMNN control 0.782; inactive. With knock-down of TRIM45 #2 the results were G2 robust z-score -0.843; G2 cells, % of GMNN control -2.96; inactive. After knock-down of TRIM45 #3 the results were G2 robust z-score 1.12; G2 cells, % of GMNN control 10.8; inactive. Silencing of RPS10P9 #1 gave: G2 robust z-score -0.402; G2 cells, % of GMNN control 0.14; inactive. For RPS10P9 #2 the deposit lists G2 robust z-score -0.575; G2 cells, % of GMNN control -1.08; inactive. For RPS10P9 #3 the deposit lists G2 robust z-score 2; G2 cells, % of GMNN control 17; inactive.

Silencing of REX1BD #1 resulted in: G2 robust z-score -0.379; G2 cells, % of GMNN control 0.3; inactive. Against REX1BD #2, the entry reads G2 robust z-score 2.86; G2 cells, % of GMNN control 23.1; inactive. Against REX1BD #3 the deposit lists G2 robust z-score 0.981; G2 cells, % of GMNN control 9.87; inactive. Depletion of KCNMA1 #1 came out at: G2 robust z-score 0.489; G2 cells, % of GMNN control 6.41; inactive. After knock-down of KCNMA1 #2, the screen gave G2 robust z-score 3.68; G2 cells, % of GMNN control 28.8; inactive. After knock-down of KCNMA1 #3, the screen gave G2 robust z-score 0.82; G2 cells, % of GMNN control 8.74; inactive.

Depletion of LRGUK #1 resulted in: G2 robust z-score 6.19; G2 cells, % of GMNN control 46.5; active. Depletion of LRGUK #2 resulted in: G2 robust z-score -0.932; G2 cells, % of GMNN control -3.59; inactive. For LRGUK #3 the deposit lists G2 robust z-score 2.96; G2 cells, % of GMNN control 23.8; inactive. Knock-down of SELE #1 came out at: G2 robust z-score 1.79; G2 cells, % of GMNN control 15.5; inactive. Depletion of SELE #2 resulted in: G2 robust z-score 1.04; G2 cells, % of GMNN control 10.3; inactive. Depletion of SELE #3 gave: G2 robust z-score -1.06; G2 cells, % of GMNN control -4.51; inactive.

PRAMENP #1 gave G2 robust z-score -0.396; G2 cells, % of GMNN control 0.178; inactive. PRAMENP #2 scored G2 robust z-score -0.91; G2 cells, % of GMNN control -3.43; inactive. PRAMENP #3 gave G2 robust z-score 2.59; G2 cells, % of GMNN control 21.2; inactive. Against ANXA3 #1 the deposit lists G2 robust z-score -0.401; G2 cells, % of GMNN control 0.145; inactive. ANXA3 #2 scored G2 robust z-score -0.0777; G2 cells, % of GMNN control 2.42; inactive. For ANXA3 #3, the values are G2 robust z-score 0.907; G2 cells, % of GMNN control 9.35; inactive.

Sorted by “G2 robust z-score” (highest first): 4 of the entries above
LRGUK #1 — G2 robust z-score: 6.19; G2 cells, % of GMNN control: 46.5; outcome: active
LRGUK #3 — G2 robust z-score: 2.96; G2 cells, % of GMNN control: 23.8; outcome: inactive
SELE #1 — G2 robust z-score: 1.79; G2 cells, % of GMNN control: 15.5; outcome: inactive
LRGUK #2 — G2 robust z-score: -0.932; G2 cells, % of GMNN control: -3.59; outcome: inactive
